No constants are given. Whether binding was seen depends on the method and setting. Sequences can lack the tags named with a protein.
Target: C-terminal domain of the growth hormone secretagogue (ghrelin) receptor type 1a (GHSR-Cter, 339–366) (human) (UniProt Q92847)
Experiment: SEC-MALS; Superdex 75 10/300 GL, 25 °C, 50 mM BisTris pH 6.7, 50 mM NaCl, 1 mM TCEP, 0.5 mM EDTA; 40 µL injected at 0.5 mL/min; samples at 1.5 mM (V2R-Cter), 0.6 mM (GHSR-Cter), 0.7 mM (β2AR-Cter); both purified

binding: no binding (tested: 0.6 mM)
Binder: GFEPFSQRKLSTLKDESSRAWTESSINT (domain or fragment, UniProt Q92847 339-366) [C-terminal domain of the growth hormone secretagogue (ghrelin) receptor type 1a (GHSR-Cter, 339–366)]

— article PMC9138321
